Measured values: publication PMC6740040
No constants are given. Whether binding was seen depends on the method and setting. Binding seen in cells or lysates may run through a third protein. Some entries that bind do so weakly or less than the wild type.

Sequences of proteins named here, by UniProt entry; tags and fusion partners are left off.
UniProt P53396: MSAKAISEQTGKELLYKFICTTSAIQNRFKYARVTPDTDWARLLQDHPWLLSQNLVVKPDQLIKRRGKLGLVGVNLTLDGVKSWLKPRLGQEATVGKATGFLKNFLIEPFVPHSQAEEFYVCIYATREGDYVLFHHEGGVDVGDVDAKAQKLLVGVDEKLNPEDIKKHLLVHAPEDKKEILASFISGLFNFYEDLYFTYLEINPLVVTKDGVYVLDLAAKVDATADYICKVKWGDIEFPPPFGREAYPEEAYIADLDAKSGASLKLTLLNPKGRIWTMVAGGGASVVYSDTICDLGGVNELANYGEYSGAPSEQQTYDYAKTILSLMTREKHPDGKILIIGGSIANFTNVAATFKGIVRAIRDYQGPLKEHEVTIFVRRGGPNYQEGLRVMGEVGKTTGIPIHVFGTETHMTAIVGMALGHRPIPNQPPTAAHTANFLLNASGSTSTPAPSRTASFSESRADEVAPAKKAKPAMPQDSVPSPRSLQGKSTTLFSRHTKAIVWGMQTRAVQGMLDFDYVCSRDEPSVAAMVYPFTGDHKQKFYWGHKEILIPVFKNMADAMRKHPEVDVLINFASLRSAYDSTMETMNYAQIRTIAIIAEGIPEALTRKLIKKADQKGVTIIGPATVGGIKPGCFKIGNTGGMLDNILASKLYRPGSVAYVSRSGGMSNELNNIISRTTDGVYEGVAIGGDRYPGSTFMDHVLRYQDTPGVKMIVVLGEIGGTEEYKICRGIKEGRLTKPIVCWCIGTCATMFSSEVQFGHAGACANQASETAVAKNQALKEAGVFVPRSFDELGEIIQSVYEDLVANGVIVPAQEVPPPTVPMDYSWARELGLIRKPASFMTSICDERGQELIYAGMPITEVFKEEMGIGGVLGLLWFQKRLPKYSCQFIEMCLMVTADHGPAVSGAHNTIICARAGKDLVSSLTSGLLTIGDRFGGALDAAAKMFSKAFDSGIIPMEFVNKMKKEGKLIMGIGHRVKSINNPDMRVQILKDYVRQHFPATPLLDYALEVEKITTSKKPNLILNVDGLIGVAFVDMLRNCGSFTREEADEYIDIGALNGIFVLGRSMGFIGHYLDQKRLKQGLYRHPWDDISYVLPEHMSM
UniProt P35222: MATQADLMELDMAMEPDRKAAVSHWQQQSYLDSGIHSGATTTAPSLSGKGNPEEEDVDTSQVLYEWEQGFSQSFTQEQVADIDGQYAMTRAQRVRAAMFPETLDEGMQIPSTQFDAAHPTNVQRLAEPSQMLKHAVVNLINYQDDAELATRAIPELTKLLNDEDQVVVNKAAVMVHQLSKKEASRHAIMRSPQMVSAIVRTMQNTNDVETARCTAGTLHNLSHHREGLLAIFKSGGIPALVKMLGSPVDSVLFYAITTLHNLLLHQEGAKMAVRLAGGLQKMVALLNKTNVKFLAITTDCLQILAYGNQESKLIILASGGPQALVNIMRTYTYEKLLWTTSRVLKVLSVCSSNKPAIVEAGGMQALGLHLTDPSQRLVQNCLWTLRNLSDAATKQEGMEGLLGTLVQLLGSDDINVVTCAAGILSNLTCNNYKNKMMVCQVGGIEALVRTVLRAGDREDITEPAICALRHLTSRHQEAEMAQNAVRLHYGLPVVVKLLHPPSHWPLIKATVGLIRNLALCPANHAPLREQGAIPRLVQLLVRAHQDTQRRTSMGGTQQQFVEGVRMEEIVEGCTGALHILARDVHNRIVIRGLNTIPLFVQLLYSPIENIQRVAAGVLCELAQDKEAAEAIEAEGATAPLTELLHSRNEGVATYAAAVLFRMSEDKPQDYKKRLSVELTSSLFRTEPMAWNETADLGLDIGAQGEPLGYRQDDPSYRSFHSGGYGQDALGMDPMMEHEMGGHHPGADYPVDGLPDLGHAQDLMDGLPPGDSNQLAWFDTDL

Assays:
[1] = target: ATP-citrate lyase (ACLY), endogenous (human (endogenous in HEK293T)) (UniProt P53396); assay: co-IP; endogenous: HEK293T cell extracts, anti-ACLY on protein A/G agarose (rabbit IgG as control), immunoblot with anti-CTNNB1
[2] = target: Flag-tagged ATP-citrate lyase (ACLY) (UniProt P53396); assay: co-IP; extracts of HEK293T cells transfected with Flag-ACLY for 48 h, anti-Flag M2 affinity gel at 4 °C for 3 h (mouse IgG as control), immunoblot with anti-CTNNB1

binding [1]: binds
binding [2]: binds
Substance: CTNNB1 (beta-catenin 1) protein (from UniProt P35222 1-781)
